Laboratory results as given in the supplement of paper PMC10849652.
The other results are listed elsewhere or left out.

Amino acid sequences for entries named in this document (tags omitted). A change or cut given only in a name is not applied to a line headed by its entry.
UniProt Q8IZD4: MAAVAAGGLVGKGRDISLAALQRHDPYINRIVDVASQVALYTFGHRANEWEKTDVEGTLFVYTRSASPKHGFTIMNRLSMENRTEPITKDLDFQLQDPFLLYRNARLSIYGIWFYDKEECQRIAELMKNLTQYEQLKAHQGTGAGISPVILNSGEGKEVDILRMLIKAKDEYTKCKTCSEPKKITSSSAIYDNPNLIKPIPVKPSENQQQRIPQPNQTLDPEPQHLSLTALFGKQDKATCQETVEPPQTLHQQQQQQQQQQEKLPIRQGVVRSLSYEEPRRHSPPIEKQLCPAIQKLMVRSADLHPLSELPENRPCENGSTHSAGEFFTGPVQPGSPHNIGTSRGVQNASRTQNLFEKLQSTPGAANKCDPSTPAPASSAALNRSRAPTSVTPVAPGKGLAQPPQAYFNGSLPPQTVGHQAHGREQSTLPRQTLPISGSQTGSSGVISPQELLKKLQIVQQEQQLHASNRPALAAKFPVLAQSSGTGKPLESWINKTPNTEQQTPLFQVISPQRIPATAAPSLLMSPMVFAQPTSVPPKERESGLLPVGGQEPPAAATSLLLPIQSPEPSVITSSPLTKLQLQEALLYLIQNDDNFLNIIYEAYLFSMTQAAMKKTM
UniProt Q96FC9: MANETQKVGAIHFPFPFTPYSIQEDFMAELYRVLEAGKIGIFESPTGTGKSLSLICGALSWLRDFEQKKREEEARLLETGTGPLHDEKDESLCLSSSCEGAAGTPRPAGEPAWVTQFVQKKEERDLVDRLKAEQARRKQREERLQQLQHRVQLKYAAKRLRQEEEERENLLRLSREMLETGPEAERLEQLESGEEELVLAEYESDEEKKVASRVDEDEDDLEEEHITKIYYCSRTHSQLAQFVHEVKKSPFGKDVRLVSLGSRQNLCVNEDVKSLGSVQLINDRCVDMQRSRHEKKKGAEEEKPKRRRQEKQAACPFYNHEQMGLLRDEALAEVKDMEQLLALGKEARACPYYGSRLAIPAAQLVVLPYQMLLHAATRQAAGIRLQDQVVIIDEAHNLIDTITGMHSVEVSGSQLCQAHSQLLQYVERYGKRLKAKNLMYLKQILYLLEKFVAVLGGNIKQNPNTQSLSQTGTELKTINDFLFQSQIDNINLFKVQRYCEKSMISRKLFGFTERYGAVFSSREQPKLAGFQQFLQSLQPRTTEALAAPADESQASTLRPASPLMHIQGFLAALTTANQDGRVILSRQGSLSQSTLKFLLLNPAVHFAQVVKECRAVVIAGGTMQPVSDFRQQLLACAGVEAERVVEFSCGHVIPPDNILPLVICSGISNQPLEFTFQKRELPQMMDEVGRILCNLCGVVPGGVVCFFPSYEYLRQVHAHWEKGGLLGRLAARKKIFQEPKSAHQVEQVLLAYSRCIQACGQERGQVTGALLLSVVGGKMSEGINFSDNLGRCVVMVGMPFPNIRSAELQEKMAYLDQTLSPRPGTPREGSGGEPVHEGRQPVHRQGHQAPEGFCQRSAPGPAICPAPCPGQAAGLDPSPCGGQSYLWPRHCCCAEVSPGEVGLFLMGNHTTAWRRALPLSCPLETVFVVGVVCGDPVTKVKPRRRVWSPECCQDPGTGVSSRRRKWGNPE
UniProt O75140: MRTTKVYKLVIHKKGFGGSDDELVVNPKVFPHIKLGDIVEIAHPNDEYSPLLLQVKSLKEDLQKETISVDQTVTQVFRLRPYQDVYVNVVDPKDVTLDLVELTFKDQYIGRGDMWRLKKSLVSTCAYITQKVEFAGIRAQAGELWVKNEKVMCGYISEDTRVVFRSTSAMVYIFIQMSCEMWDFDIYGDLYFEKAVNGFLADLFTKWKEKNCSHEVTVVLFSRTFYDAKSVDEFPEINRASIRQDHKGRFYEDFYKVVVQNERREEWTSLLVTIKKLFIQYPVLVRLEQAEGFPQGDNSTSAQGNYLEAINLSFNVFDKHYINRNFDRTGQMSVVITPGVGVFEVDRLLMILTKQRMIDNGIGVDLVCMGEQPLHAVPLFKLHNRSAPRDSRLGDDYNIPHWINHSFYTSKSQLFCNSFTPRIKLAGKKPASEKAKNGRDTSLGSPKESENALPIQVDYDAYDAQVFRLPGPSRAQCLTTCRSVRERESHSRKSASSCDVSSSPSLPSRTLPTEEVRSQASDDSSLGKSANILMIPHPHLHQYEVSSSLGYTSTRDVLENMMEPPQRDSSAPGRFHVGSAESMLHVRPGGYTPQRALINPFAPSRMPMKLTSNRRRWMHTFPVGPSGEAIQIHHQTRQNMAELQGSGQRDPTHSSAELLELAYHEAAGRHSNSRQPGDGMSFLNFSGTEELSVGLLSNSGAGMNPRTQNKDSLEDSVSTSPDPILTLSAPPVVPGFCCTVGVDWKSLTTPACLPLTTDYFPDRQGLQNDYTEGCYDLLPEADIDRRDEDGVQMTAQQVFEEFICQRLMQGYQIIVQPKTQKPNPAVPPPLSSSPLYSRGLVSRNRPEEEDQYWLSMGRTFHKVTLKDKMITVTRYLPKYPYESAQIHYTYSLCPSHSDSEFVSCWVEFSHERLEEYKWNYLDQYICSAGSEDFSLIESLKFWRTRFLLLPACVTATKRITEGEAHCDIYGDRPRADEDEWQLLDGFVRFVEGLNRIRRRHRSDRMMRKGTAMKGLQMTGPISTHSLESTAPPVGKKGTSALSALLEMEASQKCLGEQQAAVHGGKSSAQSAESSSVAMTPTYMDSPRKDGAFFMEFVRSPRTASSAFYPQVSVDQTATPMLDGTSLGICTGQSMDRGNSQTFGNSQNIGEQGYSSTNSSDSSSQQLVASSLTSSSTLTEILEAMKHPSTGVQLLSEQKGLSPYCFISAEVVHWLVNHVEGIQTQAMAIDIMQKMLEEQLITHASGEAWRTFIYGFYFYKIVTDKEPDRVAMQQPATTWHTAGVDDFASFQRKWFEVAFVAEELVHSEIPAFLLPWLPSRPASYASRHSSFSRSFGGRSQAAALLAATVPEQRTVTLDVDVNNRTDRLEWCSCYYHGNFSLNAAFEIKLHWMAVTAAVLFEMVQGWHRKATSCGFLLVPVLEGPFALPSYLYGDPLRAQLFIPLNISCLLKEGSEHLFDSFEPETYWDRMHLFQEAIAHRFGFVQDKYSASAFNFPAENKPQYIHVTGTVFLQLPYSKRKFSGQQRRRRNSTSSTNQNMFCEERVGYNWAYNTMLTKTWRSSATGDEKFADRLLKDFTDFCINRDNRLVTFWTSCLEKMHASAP
UniProt Q8IWF6: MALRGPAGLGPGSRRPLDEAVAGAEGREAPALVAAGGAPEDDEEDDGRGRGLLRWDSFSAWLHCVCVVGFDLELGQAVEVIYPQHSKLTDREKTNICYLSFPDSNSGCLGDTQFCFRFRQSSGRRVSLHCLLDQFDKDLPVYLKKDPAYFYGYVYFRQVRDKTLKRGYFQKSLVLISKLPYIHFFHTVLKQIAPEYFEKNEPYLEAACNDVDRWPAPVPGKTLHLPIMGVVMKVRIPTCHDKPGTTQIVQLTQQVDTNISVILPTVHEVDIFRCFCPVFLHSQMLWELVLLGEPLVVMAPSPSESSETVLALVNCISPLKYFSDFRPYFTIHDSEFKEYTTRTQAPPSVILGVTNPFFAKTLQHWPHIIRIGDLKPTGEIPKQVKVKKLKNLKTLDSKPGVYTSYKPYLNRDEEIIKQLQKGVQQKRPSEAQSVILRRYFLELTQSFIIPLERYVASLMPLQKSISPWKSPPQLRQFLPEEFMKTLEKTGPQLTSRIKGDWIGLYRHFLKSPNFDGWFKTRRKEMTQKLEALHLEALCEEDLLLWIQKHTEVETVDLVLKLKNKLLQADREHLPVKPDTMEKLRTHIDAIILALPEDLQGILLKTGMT
UniProt Q6VVX0: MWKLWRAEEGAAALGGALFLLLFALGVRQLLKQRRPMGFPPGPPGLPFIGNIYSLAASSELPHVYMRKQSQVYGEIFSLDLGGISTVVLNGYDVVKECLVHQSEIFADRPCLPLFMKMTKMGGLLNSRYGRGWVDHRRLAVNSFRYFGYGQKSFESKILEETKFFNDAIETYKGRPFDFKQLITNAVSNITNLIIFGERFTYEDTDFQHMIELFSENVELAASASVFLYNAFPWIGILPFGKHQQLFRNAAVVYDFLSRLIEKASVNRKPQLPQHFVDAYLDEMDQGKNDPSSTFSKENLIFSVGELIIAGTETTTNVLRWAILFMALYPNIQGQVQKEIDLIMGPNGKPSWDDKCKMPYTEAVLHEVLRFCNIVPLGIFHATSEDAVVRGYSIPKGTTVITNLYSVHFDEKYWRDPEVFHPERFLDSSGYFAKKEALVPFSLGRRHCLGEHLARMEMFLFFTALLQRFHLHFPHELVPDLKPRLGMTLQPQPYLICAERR
UniProt Q99418: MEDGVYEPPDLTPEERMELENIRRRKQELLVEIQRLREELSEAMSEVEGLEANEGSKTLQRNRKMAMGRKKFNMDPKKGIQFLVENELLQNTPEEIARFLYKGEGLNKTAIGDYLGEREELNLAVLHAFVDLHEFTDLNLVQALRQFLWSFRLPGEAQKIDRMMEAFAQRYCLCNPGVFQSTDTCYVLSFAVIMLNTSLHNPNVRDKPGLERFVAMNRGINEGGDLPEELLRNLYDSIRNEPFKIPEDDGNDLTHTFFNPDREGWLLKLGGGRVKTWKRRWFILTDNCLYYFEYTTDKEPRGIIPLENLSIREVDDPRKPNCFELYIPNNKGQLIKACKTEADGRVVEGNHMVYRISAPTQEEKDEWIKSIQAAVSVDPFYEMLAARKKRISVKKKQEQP
UniProt Q96SQ9: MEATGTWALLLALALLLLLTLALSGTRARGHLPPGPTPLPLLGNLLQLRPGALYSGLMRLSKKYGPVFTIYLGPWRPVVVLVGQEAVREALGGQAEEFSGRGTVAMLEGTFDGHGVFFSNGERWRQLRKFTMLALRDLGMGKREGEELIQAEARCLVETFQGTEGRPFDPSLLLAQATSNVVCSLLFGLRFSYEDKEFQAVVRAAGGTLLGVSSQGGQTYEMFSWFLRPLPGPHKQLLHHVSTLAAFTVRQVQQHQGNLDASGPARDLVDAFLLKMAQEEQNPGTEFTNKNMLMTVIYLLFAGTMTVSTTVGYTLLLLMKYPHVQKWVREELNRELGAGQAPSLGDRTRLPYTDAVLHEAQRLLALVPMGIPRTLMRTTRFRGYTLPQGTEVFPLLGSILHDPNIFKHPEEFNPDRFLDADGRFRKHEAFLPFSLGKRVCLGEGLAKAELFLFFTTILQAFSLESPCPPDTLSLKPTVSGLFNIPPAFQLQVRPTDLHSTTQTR
UniProt Q8WVC6: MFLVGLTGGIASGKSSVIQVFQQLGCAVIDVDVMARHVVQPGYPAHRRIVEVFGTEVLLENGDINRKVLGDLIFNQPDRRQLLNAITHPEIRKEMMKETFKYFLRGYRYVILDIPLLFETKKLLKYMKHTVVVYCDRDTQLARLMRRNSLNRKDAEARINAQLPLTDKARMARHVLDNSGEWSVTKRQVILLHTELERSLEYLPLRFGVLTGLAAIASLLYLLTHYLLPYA
UniProt Q9HBI6: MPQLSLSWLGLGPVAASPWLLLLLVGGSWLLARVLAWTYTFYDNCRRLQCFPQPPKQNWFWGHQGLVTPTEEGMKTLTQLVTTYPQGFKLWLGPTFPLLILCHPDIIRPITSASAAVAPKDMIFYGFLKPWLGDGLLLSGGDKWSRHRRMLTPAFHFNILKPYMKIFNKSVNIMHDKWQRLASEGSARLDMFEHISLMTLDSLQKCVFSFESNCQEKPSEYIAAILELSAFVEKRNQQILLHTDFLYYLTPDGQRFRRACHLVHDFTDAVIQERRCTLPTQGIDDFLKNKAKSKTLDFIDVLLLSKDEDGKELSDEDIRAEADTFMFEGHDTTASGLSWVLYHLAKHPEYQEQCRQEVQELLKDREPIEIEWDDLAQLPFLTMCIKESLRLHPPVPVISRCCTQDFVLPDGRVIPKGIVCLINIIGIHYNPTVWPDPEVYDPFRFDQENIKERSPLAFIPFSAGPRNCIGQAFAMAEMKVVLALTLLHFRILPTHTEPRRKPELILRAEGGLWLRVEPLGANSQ
UniProt Q96QD5: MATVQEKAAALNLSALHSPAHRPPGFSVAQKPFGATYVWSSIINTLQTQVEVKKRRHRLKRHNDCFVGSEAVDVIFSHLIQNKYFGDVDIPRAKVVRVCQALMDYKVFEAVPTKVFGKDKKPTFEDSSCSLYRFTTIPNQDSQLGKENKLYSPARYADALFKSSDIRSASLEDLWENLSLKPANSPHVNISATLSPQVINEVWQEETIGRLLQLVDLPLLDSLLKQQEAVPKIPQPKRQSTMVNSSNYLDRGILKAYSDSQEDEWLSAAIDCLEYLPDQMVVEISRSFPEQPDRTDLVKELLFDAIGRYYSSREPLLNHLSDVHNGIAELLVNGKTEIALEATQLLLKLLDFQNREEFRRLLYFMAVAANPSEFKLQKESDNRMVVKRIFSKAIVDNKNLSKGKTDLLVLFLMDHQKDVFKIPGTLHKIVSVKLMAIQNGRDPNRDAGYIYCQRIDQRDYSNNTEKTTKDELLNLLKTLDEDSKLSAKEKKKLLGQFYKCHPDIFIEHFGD

Columns and labels:
Assay in all cases: log2 fold change, soluble protein after heating vs DMSO (PISA); higher = thermal stabilisation; K562 lysate, 10 uM; active = over 0.2 and 3.5 SD of the protein, either way, in both replicates (recomputed)
erlotinib = compound: C#Cc1cccc(Nc2ncnc3cc(OCCOC)c(OCCOC)cc23)c1 [erlotinib]
Summary of the method: (§1)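 To prepare the extract, K562 pellets were dounce-homogenised in PBS pH 7.4 with 1 mM MgCl2, giving crude material at 1 mg/mL protein. This was treated with 10 μM compound for 30 min, then heated in aliquots for 3 min over 48°C-58°C before pooling and addition of NP-40 to 0.5% at 4°C. Centrifugation at 21,000xg for 90 min left soluble protein in the supernatant, which TMTpro 16plex LC-MS/MS quantified with equalised channel sums. Results are log-two fold changes in thermal stability compared with solvent controls, from duplicates.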

[1] = compound: C/C(=N\NC(=O)C1=CC(=CC=C1)S(=O)(=O)N2CCOCC2)/C3=C(C=CC(=C3)Cl)O
Summary of the method: as §1

[2] = compound: C1=CC(=CC=C1C2=NC3=C(N2)C=C(C=C3)C(=O)N)OC4=CC=C(C=C4)Cl
Summary of the method: as §1

[3] = compound: C1=CC2=C(C=CC(=C2)/C=C\3/C(=O)NC(=NCC4=CC=CS4)S3)N=C1
Summary of the method: as §1

[4] = compound: C1=CC2=NC=CN=C2C=C1/C=C/3\C(=O)NC(=O)S3
Summary of the method: as §1

[5] = compound: C1=CC=C2C(=C1)C3=NNC4=CC=CC(=C43)C2=O
Summary of the method: as §1

[6] = compound: C1CCN(C1)C(=O)NC2=CC=CC(=C2)NC3=NC=C(C(=N3)NCCC4=CN=CN4)Br
Summary of the method: as §1

[7] = compound: C1CN(CCC1(CC2=CC=C(C=C2)Cl)N)C3=NC=NC4=C3C=CN4
Summary of the method: as §1

ibrutinib = compound: C=CC(=O)N1CCC[C@@H](n2nc(-c3ccc(Oc4ccccc4)cc3)c3c(N)ncnc32)C1 [ibrutinib]
Summary of the method: as §1

[8] = compound: CC(C)C1=C2N=C(C=C(N2N=C1)NCC3=CC=CC=C3)NCCCCCCN
Summary of the method: as §1

[9] = compound: CC1=C(C2=C(C=C1)C(=O)C3=CC=CC=C3N2CCCN)C
Summary of the method: as §1

[10] = compound: CC1=C(C=C(C=C1)NC(=O)C2=CC(=CC=C2)C(C)(C)C#N)NC3=CC4=C(C=C3)N=CN(C4=O)C
Summary of the method: as §1

[11] = compound: C1=CC=C(C=C1)C2=NC(=C(N2)C3=CC=NC=C3)C4=CC(=C(C=C4)Cl)O
Summary of the method: as §1

IRAK-1-4 Inhibitor I = compound: C1COCCN1CCN2C3=CC=CC=C3N=C2NC(=O)C4=CC(=CC=C4)[N+](=O)[O-] [IRAK-1-4 Inhibitor I]
Summary of the method: as §1

ralimetinib = compound: CC(C)(C)Cn1c(N)nc2ccc(-c3[nH]c(C(C)(C)C)nc3-c3ccc(F)cc3)nc21 [ralimetinib]
Summary of the method: as §1

[12] = compound: CC(C)(O)CC(=O)NCCn1ccc2ncnc(Nc3ccc(Oc4cccc(C(F)(F)F)c4)c(Cl)c3)c21
Summary of the method: as §1

[13] = compound: CC1=C(C(CC(=O)N1)C2=CC=C(C=C2)C(F)(F)F)C(=O)NC3=C(C=C4C(=C3)C=NN4)F
Summary of the method: as §1

[14] = compound: CC1=C(C=C(C=C1)NC(=O)C2=CC(=CC=C2)N(C)C)NC(=O)C3=CC=C(C=C3)O
Summary of the method: as §1

[15] = compound: CC(=O)c1cnc2ccc(-c3cc(Cl)c(O)c(Cl)c3)nc2c1N[C@H]1CC[C@H](CN(C)C)CC1
Summary of the method: as §1

[16] = compound: CC1=CC=C(C=C1)SC2=C3C=C(SC3=CN=C2)C(=O)N
Summary of the method: as §1

Measured: log2 fold change

DCP1B (UniProt Q8IZD4)
inactive: erlotinib 0.095 | [1] 0.039 | [2] -0.092 | [3] -0.025 | [4] -0.341 | [5] 0.146 | [6] 0.054 | [7] 0.107 | ibrutinib -0.284 | [8] 0.272 | [9] -0.084 | [10] -0.027

DDX11 (UniProt Q96FC9)
inactive: erlotinib 0.019 | [1] 0.044 | [2] -0.159 | [3] 0.025 | [11] -0.006 | [5] 0.091 | IRAK-1-4 Inhibitor I -0.009 | ralimetinib 0.083 | [12] 0.039 | [8] -0.176 | [13] 0.034 | [9] -0.063 | [10] -0.031 | [14] 0.044

DBNL (UniProt Q9UJU6)
inactive: erlotinib 0.056 | [2] 0.075 | [4] 0.022 | ibrutinib 0.027 | [15] 0.081 | [8] -0.136 | [13] 0.061 | [9] -0.043 | [16] -0.073

DEPDC5 (UniProt O75140)
inactive: erlotinib 0.252 | [1] -0.048 | [2] 0.081 | [3] 0.084 | [4] 0.013 | [5] -0.079 | ibrutinib 0.096 | [8] 0.109 | [13] -0.004

DENND6A (UniProt Q8IWF6)
inactive: erlotinib -0.019 | [1] 0.232 | [2] 0.004 | [3] 0.073 | [4] 0.048 | [11] 0.024 | [5] 0.003 | [6] 0.029 | [7] 0.083 | IRAK-1-4 Inhibitor I 0.025 | ibrutinib 0.014 | [15] 0.064 | ralimetinib 0.052 | [12] -0.047 | [8] 0.037 | [13] 0.002 | [9] -0.03 | [10] 0.001 | [14] 0.022 | [16] 0.051

CYP2R1 (UniProt Q6VVX0)
inactive: erlotinib -0.047 | [1] -0.122 | [2] -0.08 | [3] 0.019 | [11] -0.013 | [5] 0.027 | [6] 0.035 | [7] -0.026 | IRAK-1-4 Inhibitor I 0.03 | [15] -0.014 | ralimetinib 0.111 | [12] -0.017 | [8] -0.03 | [13] -0.084 | [9] 0.046 | [14] -0.058 | [16] 0.017

Two successive entries out of the list so far, for reference:
DBNL (UniProt Q9UJU6)
inactive: erlotinib 0.056 | [2] 0.075 | [4] 0.022 | ibrutinib 0.027 | [15] 0.081 | [8] -0.136 | [13] 0.061 | [9] -0.043 | [16] -0.073

DEPDC5 (UniProt O75140)
inactive: erlotinib 0.252 | [1] -0.048 | [2] 0.081 | [3] 0.084 | [4] 0.013 | [5] -0.079 | ibrutinib 0.096 | [8] 0.109 | [13] -0.004

Going on with the list:

DEUP1 (UniProt Q05D60)
inactive: erlotinib 0.143 | [2] 0.168 | [4] 0.049 | [11] 0.167 | [6] 0.083 | [7] -0.012 | IRAK-1-4 Inhibitor I 0.167 | ibrutinib 0.145 | [15] -0.35 | ralimetinib -0.423 | [12] -0.482 | [8] 0.043 | [13] 0.006 | [9] -0.255 | [10] 0.034 | [14] 0.116 | [16] -0.32

CYTH2 (UniProt Q99418)
inactive: erlotinib 0.016 | [2] 0.057 | [4] 0.089 | [11] 0.026 | [6] 0.02 | [7] 0.033 | IRAK-1-4 Inhibitor I -0.073 | ibrutinib 0.054 | [15] -0.013 | ralimetinib 0.058 | [12] 0.075 | [8] -0.01 | [13] -0.05 | [9] 0.016 | [14] 0.047 | [16] -0.003

DCAF12 (UniProt Q5T6F0)
inactive: erlotinib -0.059 | [1] 0.03 | [2] 0.011 | [3] -0.045 | [4] -0.076 | [11] -0.038 | [5] -0.03 | [6] -0.134 | [7] 0.241 | IRAK-1-4 Inhibitor I 0.126 | ibrutinib 0.068 | ralimetinib 0.035 | [12] -0.054 | [8] -0.022 | [13] 0.03 | [9] 0.075 | [10] 0.013 | [14] -0.061

CYP2S1 isoform 2 (UniProt Q96SQ9)
inactive: erlotinib -0.026 | [1] -0.291 | [2] -0.018 | [3] -0.096 | [11] 0.07 | [5] -0.123 | [6] -0.198 | [7] 0.08 | IRAK-1-4 Inhibitor I -0.044 | [15] 0.146 | ralimetinib 0.048 | [12] 0 | [8] 0.061 | [9] -0.084 | [10] -0.028 | [14] 0.07 | [16] -0.229

DCAKD (UniProt Q8WVC6)
inactive: [1] -0.177 | [3] -0.212 | [11] -0.111 | [5] 0.017 | IRAK-1-4 Inhibitor I 0.013 | ralimetinib 0.076 | [12] -0.097 | [13] -0.31 | [14] 0.037

CYP4F11 (UniProt Q9HBI6)
inactive: [11] 0.236 | IRAK-1-4 Inhibitor I -0.205 | ralimetinib 0.203 | [12] 0.227 | [9] 0.895 | [14] 0.199

DDX19A isoform 2 (UniProt Q9NUU7)
inactive: [10] 0.365

DEPDC7 (UniProt Q96QD5)
inactive: [6] -0.007 | [7] -0.031 | [13] -0.162

DCAF5 (UniProt Q96JK2)
inactive: [1] 0.114 | [3] -0.161 | [5] 0.091 | [9] -0.157 | [10] -0.02
